Experimental data taken from article PMC5999394, “Design principles of a microtubule polymerase” (eLife, 2018).
These are yes or no findings as the source states them, for the method shown. Binding calls can cover weak binding; strength is not graded here. Where a sequence is shown, tags or fusion partners need not be part of it.

Biological target: T1, mCherry-tagged Zyg-9 (C. elegans) (UniProt G5EEM5)
T1 sequence: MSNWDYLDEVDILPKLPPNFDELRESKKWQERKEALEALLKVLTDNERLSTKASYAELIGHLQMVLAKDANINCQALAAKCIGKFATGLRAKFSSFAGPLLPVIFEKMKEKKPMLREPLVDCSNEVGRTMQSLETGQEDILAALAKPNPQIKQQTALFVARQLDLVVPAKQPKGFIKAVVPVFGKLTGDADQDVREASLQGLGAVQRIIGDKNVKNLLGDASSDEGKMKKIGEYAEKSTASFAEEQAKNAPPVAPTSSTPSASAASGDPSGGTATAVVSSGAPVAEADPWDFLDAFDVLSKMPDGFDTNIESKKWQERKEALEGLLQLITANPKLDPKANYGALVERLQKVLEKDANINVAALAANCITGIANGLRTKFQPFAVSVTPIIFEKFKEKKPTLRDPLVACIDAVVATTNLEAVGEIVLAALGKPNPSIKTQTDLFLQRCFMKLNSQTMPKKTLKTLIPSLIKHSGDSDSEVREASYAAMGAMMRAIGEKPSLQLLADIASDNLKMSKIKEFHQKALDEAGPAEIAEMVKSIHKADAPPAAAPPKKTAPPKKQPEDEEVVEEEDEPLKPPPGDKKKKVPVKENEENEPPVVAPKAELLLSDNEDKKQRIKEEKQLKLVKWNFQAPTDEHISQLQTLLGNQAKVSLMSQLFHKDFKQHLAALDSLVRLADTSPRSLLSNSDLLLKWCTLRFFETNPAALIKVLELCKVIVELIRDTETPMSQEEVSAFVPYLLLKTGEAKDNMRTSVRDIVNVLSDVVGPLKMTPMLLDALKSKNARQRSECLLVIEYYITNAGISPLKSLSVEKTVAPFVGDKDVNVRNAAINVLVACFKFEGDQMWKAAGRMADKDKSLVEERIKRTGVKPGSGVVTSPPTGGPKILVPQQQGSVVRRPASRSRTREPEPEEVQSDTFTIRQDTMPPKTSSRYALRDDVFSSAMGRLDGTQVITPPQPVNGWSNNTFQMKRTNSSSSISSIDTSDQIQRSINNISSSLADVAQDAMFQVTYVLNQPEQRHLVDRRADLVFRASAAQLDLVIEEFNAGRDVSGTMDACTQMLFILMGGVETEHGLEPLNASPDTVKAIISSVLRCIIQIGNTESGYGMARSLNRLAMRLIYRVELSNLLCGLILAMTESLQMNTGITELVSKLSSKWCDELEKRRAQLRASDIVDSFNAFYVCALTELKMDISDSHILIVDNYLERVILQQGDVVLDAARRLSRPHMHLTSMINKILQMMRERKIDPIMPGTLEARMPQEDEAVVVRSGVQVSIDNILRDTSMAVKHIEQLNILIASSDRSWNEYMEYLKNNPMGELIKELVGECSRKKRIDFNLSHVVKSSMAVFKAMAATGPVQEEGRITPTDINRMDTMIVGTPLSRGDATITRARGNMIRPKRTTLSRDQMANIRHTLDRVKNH
Assay: TIRF microscopy of Zyg-9-mCherry on stabilized microtubules; 50 nM Zyg-9-mCherry on unlabeled GTPγS-stabilized yeast microtubules, without or with 5 μM bovine tubulin as competing binding partner; both purified

bovine tubulin (unpolymerized) (complex)
binding: binds
